From article doi:10.1101/2025.07.20.665823
No constants are given. Whether binding was seen depends on the method and setting. Binding seen in cells or lysates may run through a third protein. These calls come from enrichment with a bait or labelling near it, and not all partners need be listed. Tags and fused reporters may be left off the sequences shown.

Sequences of proteins named here, by UniProt entry; tags and fusion partners are left off. Residues count along the entry.
UniProt Q9LX66, residues 25-830: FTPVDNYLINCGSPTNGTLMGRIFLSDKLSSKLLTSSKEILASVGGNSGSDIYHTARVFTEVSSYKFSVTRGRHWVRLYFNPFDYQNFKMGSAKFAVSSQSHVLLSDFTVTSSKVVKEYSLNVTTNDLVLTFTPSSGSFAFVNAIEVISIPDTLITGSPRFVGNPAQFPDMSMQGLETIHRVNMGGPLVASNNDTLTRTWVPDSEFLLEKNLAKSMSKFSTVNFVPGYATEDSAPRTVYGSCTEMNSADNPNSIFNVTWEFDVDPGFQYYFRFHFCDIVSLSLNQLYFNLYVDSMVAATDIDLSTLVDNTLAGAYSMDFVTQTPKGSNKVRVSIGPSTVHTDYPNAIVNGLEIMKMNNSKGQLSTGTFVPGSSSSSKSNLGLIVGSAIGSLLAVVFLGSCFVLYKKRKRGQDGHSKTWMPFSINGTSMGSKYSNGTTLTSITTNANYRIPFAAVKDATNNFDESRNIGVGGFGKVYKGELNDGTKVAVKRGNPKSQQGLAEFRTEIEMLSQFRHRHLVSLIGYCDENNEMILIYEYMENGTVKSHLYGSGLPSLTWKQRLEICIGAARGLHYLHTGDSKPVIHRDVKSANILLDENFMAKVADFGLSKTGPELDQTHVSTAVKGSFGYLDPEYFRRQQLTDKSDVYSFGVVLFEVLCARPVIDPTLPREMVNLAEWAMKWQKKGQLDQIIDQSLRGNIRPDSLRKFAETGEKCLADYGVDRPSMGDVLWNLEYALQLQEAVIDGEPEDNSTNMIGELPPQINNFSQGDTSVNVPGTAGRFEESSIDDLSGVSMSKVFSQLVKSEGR

T1: ERECTA-HA-TbID fusion protein (Arabidopsis thaliana) (UniProt Q42371)
T1 sequence: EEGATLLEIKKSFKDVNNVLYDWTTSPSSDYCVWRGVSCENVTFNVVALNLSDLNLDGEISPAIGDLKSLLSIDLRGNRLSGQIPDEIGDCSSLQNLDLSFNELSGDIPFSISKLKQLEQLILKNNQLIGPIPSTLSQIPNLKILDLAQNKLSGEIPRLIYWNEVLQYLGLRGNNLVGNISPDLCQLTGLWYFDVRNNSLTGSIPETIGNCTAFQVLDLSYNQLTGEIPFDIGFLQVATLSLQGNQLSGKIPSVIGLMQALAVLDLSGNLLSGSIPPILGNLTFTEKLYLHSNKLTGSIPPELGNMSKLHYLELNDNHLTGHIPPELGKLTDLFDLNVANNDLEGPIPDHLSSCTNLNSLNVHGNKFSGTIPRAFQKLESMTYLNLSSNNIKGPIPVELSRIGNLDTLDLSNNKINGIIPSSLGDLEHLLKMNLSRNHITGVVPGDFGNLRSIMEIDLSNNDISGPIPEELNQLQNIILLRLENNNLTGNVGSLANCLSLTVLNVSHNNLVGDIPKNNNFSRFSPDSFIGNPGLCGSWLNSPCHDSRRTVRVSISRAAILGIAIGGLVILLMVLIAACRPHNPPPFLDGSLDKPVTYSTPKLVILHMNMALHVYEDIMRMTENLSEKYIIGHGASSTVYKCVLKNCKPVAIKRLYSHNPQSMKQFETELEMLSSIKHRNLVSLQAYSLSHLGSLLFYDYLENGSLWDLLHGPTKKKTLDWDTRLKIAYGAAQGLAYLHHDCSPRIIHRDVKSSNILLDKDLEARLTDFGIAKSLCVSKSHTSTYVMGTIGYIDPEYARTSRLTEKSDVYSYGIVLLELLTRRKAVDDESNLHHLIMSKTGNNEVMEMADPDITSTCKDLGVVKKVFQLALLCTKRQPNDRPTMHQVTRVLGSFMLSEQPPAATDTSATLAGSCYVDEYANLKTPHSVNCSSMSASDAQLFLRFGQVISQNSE


Tests used:
[1] = biological target: T1, ERECTA-HA-TbID fusion protein (Arabidopsis thaliana); experiment: proximity labelling; TbID-PL: ERECTA-HA-TbID seedlings, 50 μM biotin 1 hr at room temperature; biotinylated proteins on streptavidin magnetic beads; LC-MS; ERECTA-HA-TbID vs er-105
[2] = biological target: T1, ERECTA-HA-TbID fusion protein (Arabidopsis thaliana); experiment: proximity labelling; optimized TbID-PL: ERECTA-HA-TbID seedlings with exogenous biotin (1 hour) compared with mock treated control (without biotin, 1 hour); LC-MS
[3] = biological target: T1, ERECTA-HA-TbID fusion protein (Arabidopsis thaliana); experiment: proximity labelling; membrane TbID-PL: microsomal fractionation of ERECTA-HA-TbID seedlings, microsomal vs cytosolic fractions; LC-MS
[4] = biological target: T1, ERECTA-HA-TbID fusion protein (Arabidopsis thaliana); experiment: affinity purification with mass spectrometry; ET-AP: lysate of five-day-old ERECTA-HA-TbID seedlings (1 % Triton X-100 lysis buffer) on anti-HA magnetic beads, 4 °C, 18 hrs; LC-MS; compared with er-105

Molecule | binding [1] | binding [2] | binding [3] | binding [4]
PICALM3 (endogenous) | binds | – | – | –
HERK1 (from UniProt Q9LX66 25-830) (receptor) | binds | binds | binds | –
PICALM4A (endogenous) | binds | binds | binds | –
LIK1 (receptor) | binds | binds | binds | –
BRASSINOSTEROID-… KINASE 1 (from UniProt Q944A7 1-512) (enzyme) | – | – | binds | –
PICALM4B (endogenous) | binds | binds | binds | –
YODA (enzyme) | – | binds | – | –
TOO MANY MOUTHS (receptor, UniProt Q9SSD1 24-496) FTVITSDSTAPSALIDGPQTGFTMTNDGARTEPDEQDAVYDIMRATGNDWAAAIPDVCRGRWHGIECMPDQDNVYHVVSLSFGALSDDTAFPTCDPQRSYVSESLTRLKHLKALFFYRCLGRAPQRIPAFLGRLGSSLQTLVLRENGFLGPIPDELGNLTNLKVLDLHKNHLNGSIPLSFNRFSGLRSLDLSGNRLTGSIPGFVLPALSVLDLNQNLLTGPVPPTLTSCGSLIKIDLSRNRVTGPIPESINRLNQLVLLDLSYNRLSGPFPSSLQGLNSLQALMLKGNTKFSTTIPENAFKGLKNLMILVLSNTNIQGSIPKSLTRLNSLRVLHLEGNNLTGEIPLEFRDVKHLSELRLNDNSLTGPVPFERDTVWRMRRKLRLYNNAGLCVNRDSDLDDAFGSKSGSTVRLCDAETSRPAPSGTVQHLSREEDGALPDGATDVSSTSKSLGFSYLSAFFLVFPNFIFMLISS | – | – | – | binds
ANGUSTIFOLIA (protein, UniProt O23702 1-636) MSKIRSSATMPHRDQPSPASPHVVTLNCIEDCALEQDSLAGVAGVEYVPLSRIADGKIESATAVLLHSLAYLPRAAQRRLRPHQLILCLGSADRAVDSTLAADLGLRLVHVDTSRAEEIADTVMALILGLLRRTHLLSRHALSASGWLGSLQPLCRGMRRCRGMVLGIVGRSVSARYLASRSLAFKMSVLYFDVPEGDEERIRPSRFPRAARRMDTLNDLLAASDVISLHCALTNDTVQILNAECLQHIKPGAFLVNTGSCQLLDDCAVKQLLIDGTIAGCALDGAEGPQWMEAWVKEMPNVLILPRSADYSEEVWMEIREKAISILHSFFLDGVIPSNTVSDEEVEESEASEEEEQSPSKHEKLAIVESTSRQQGESTLTSTEIVRREASELKESLSPGQQHVSQNTAVKPEGRRSRSGKKAKKRHSQQKYMQKTDGSSGLNEESTSRRDDIAMSDTEEVLSSSSRCASPEDSRSRKTPLEVMQESSPNQLVMSSKKFIGKSSELLKDGYVVALYAKDLSGLHVSRQRTKNGGWFLDTLSNVSKRDPAAQFIIAYRNKDTVGLRSFAAGGKLLQINRRMEFVFASHSFDVWESWSLEGSLDECRLVNCRNSSAVLDVRVEILAMVGDDGITRWID | binds | binds | binds | –
BRI1-ASSOCIATED KINASE1/SOMATIC EMBRYOGENESIS RECEPTOR KINASE3 (receptor, UniProt Q94F62 26-615) NAEGDALSALKNSLADPNKVLQSWDATLVTPCTWFHVTCNSDNSVTRVDLGNANLSGQLVMQLGQLPNLQYLELYSNNITGTIPEQLGNLTELVSLDLYLNNLSGPIPSTLGRLKKLRFLRLNNNSLSGEIPRSLTAVLTLQVLDLSNNPLTGDIPVNGSFSLFTPISFANTKLTPLPASPPPPISPTPPSPAGSNRITGAIAGGVAAGAALLFAVPAIALAWWRRKKPQDHFFDVPAEEDPEVHLGQLKRFSLRELQVASDNFSNKNILGRGGFGKVYKGRLADGTLVAVKRLKEERTQGGELQFQTEVEMISMAVHRNLLRLRGFCMTPTERLLVYPYMANGSVASCLRERPESQPPLDWPKRQRIALGSARGLAYLHDHCDPKIIHRDVKAANILLDEEFEAVVGDFGLAKLMDYKDTHVTTAVRGTIGHIAPEYLSTGKSSEKTDVFGYGVMLLELITGQRAFDLARLANDDDVMLLDWVKGLLKEKKLEALVDVDLQGNYKDEEVEQLIQVALLCTQSSPMERPKMSEVVRMLEGDGLAERWEEWQKEEMFRQDFNYPTHHPAVSGWIIGDSTSQIENEYPSGPR | – | binds | – | –
auxin efflux transporter PIN3 (protein, UniProt Q9S7Z8 1-640) MISWHDLYTVLTAVIPLYVAMILAYGSVRWWKIFSPDQCSGINRFVAIFAVPLLSFHFISTNNPYAMNLRFIAADTLQKIIMLSLLVLWANFTRSGSLEWSITIFSLSTLPNTLVMGIPLLIAMYGEYSGSLMVQIVVLQCIIWYTLLLFLFEFRGAKMLIMEQFPETAASIVSFKVESDVVSLDGHDFLETDAEIGDDGKLHVTVRKSNASRRSFCGPNMTPRPSNLTGAEIYSLSTTPRGSNFNHSDFYNMMGFPGGRLSNFGPADMYSVQSSRGPTPRPSNFEENCAMASSPRFGYYPGGGAGSYPAPNPEFSSTTTSTANKSVNKNPKDVNTNQQTTLPTGGKSNSHDAKELHMFVWSSNGSPVSDRAGLNVFGGAPDNDQGGRSDQGAKEIRMLVPDQSHNGETKAVAHPASGDFGGEQQFSFAGKEEEAERPKDAENGLNKLAPNSTAALQSKTGLGGAEASQRKNMPPASVMTRLILIMVWRKLIRNPNTYSSLIGLIWALVAFRWHVAMPKIIQQSISILSDAGLGMAMFSLGLFMALQPKLIACGNSVATFAMAVRFLTGPAVMAVAAIAIGLRGDLLRVAIVQAALPQGIVPFVFAKEYNVHPAILSTGVIFGMLIALPITLVYYILLGL | binds | – | – | binds
HAESA-LIKE1 (receptor, UniProt Q9SGP2 16-996) LNQDGFILQQVKLSLDDPDSYLSSWNSNDASPCRWSGVSCAGDFSSVTSVDLSSANLAGPFPSVICRLSNLAHLSLYNNSINSTLPLNIAACKSLQTLDLSQNLLTGELPQTLADIPTLVHLDLTGNNFSGDIPASFGKFENLEVLSLVYNLLDGTIPPFLGNISTLKMLNLSYNPFSPSRIPPEFGNLTNLEVMWLTECHLVGQIPDSLGQLSKLVDLDLALNDLVGHIPPSLGGLTNVVQIELYNNSLTGEIPPELGNLKSLRLLDASMNQLTGKIPDELCRVPLESLNLYENNLEGELPASIALSPNLYEIRIFGNRLTGGLPKDLGLNSPLRWLDVSENEFSGDLPADLCAKGELEELLIIHNSFSGVIPESLADCRSLTRIRLAYNRFSGSVPTGFWGLPHVNLLELVNNSFSGEISKSIGGASNLSLLILSNNEFTGSLPEEIGSLDNLNQLSASGNKFSGSLPDSLMSLGELGTLDLHGNQFSGELTSGIKSWKKLNELNLADNEFTGKIPDEIGSLSVLNYLDLSGNMFSGKIPVSLQSLKLNQLNLSYNRLSGDLPPSLAKDMYKNSFIGNPGLCGDIKGLCGSENEAKKRGYVWLLRSIFVLAAMVLLAGVAWFYFKYRTFKKARAMERSKWTLMSFHKLGFSEHEILESLDEDNVIGAGASGKVYKVVLTNGETVAVKRLWTGSVKETGDCDPEKGYKPGVQDEAFEAEVETLGKIRHKNIVKLWCCCSTRDCKLLVYEYMPNGSLGDLLHSSKGGMLGWQTRFKIILDAAEGLSYLHHDSVPPIVHRDIKSNNILIDGDYGARVADFGVAKAVDLTGKAPKSMSVIAGSCGYIAPEYAYTLRVNEKSDIYSFGVVILEIVTRKRPVDPELGEKDLVKWVCSTLDQKGIEHVIDPKLDSCFKEEISKILNVGLLCTSPLPINRPSMRRVVKMLQEIGGGDEDSLHKIRDDKDGKLTPYYNEDTSDQGSIA | – | – | binds | –
auxin efflux transporter PIN7 (protein, UniProt Q940Y5 1-619) MITWHDLYTVLTAVIPLYVAMILAYGSVRWWKIFSPDQCSGINRFVAIFAVPLLSFHFISSNNPYAMNLRFIAADTLQKLIMLTLLIIWANFTRSGSLEWSITIFSLSTLPNTLVMGIPLLIAMYGEYSGSLMVQIVVLQCIIWYTLLLFLFEYRGAKILIMEQFPETGASIVSFKVESDVVSLDGHDFLETDAQIGDDGKLHVTVRKSNASRRSFYGGGGTNMTPRPSNLTGAEIYSLNTTPRGSNFNHSDFYSMMGFPGGRLSNFGPADMYSVQSSRGPTPRPSNFEESCAMASSPRFGYYPGGAPGSYPAPNPEFSTGNKTGSKAPKENHHHVGKSNSNDAKELHMFVWGSNGSPVSDRAGLQVDNGANEQVGKSDQGGAKEIRMLISDHTQNGENKAGPMNGDYGGEEESERVKEVPNGLHKLRCNSTAELNPKEAIETGETVPVKHMPPASVMTRLILIMVWRKLIRNPNTYSSLIGLIWALVAFRWDVAMPKIIQQSISILSDAGLGMAMFSLGLFMALQPKLIACGNSTATFAMAVRFFTGPAVMAVAAMAIGLRGDLLRVAIVQAALPQGIVPFVFAKEYNVHPAILSTGVIFGMLIALPITLVYYILLGL | binds | – | – | binds
